Laboratory results reported in US20100016434A1, “Inhibitors of Egln3 Activity for the Treatment of Neurodegenerative Disorders” (priority 2005, published 2010).
At least one compound was matched to its structure with a doubt left.

Test system: JunB
Assay: Immunoblot analysis of JunB in 786-O renal carcinoma subclones
Format: cell-based, human
Conditions: treated with DFO
Description: FIG. 2: (A) Immunoblot analysis of 786-O VHL(−/−) renal carcinoma cells retrovirally infected to produce the indicated short hairpin RNAs (shRNA) or wild-type pVHL (VHL). (B) Immunoblot analyis of RC3 cells and WT7 cells; where indicated, WT7 cells were treated with DFO or infected to produce HIF2α P405A; P531A or with empty retrovirus. (C) Immunoblot analysis of indicated 786-O subclones grown in presence or absence of DFO; (*)=non-specific band. (D) Immunoblot analysis of A498 and 786-O cells transfected to produce the indicated HA-pVHL variants or with empty vector. Arrow indicates a slowly migrating form of aPKC. (E) In vitro aPKC activity. Anti-aPKC immunoprecipitates of the indicated cell lines under antibody excess conditions were incubated with a peptidic aPKC substrate in the presence of ^32P-γ-ATP. Shown are incorporated ^32P values. (F) Immunoblot analysis of 786-O cells treated with the PKC inhibitor GF109230X.
Twenty μg of nuclear extract per lane, prepared using a NE-PER extraction kit (Pierce Biotechnology, Inc., Rockford Ill.) and measured by the Bradford assay, was resolved on 10% or 12% SDS-PAGE gels and transferred to nitrocellulose membrane (Bio-Rad Laboratories, Hercules Calif.) to detect endogenous JunB and HIF2α. […] Bound protein was detected with a Horseradish Peroxidase (HRP)-conjugated secondary antibodies and an enhanced chemiluminesence kit (Pierce).

## CC(=O)N(O)CCCCCNC(=O)CCC(=O)N(O)CCCCCNC(=O)CCC(=O)N(O)CCCCCN [DFO, deferoxamine]
786-O cells containing wild-type pVHL
  JunB levels: induced
786-O cells producing Type 2C pVHL mutant L188V
  JunB levels: not induced
